This is one part of the list.
These sequences were tested against OsWRKY34 (Oryza sativa, UniProt Q0JBA9 1-250) (assay: protein-binding microarray (RPBM); PBS, 2% BSA, 51.3 ng/ul salmon testes DNA, 50 uM zinc acetate, 200 nM TF, 25 C, 1 h; high values mean tight binding). Conditions: protein: recombinant; tags: N-terminal polyhistidine and DsRed monomer fusion (pET32a); label: CyDye5-dUTP incorporated in the synthesized complementary strand; 3' TTTTT single-stranded linker to array surface; dsDNA, one strand shown.
Method in brief: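 Ni–NTA purification followed expression in E. coli BL21-CodonPlus of transcription factors fused N-terminally to a polyhistidine tag and DsRed. At 200 nM in PBS with 2% BSA, salmon testes DNA and 50 µM zinc acetate, the protein was incubated for 1 h at 25 °C with a custom Agilent array that had been primer-extended with Cy5-dUTP and blocked with 2% BSA. After washing, the array was read on an Axon 4000B scanner. The binding signal is per-feature fluorescence intensity in arbitrary units.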

Amino acid sequences for entries named in this document (tags omitted).
UniProt Q0JBA9, entry or part of it: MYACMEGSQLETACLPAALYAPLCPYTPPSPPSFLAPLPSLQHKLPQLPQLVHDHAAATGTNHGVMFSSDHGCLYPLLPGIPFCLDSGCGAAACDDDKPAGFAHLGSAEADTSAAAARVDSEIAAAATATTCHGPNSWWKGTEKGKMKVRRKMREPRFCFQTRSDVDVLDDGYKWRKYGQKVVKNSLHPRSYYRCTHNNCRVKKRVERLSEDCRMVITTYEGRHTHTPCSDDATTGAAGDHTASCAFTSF

Sequence | binding signal
TTGGTTTGTTTGTAGGAGTTTCTAACAGCTGCAGCTTCTTCGGAGTCACCTAGTGCAG | 11200 fluorescence intensity (a.u.)
ATTACTAAGCAGTATCATCATCTTCTCTAAAGCCGTTCCTCGGAGTCACCTAGTGCAG | 8380 fluorescence intensity (a.u.)
GATCTCTCTCTCGGCTTCTCCTCTCCTCTCTCTCTCTCTCCGGAGTCACCTAGTGCAG | 8610 fluorescence intensity (a.u.)
GGGGATCAAGATTTGATTTGCGAGGTTCTTTGCTTCATACCGGAGTCACCTAGTGCAG | 8600 fluorescence intensity (a.u.)
CTCATCACCGCCGCCCACGTCACCCTCTACGACTTCAACACGGAGTCACCTAGTGCAG | 9920 fluorescence intensity (a.u.)
GATGCTTATCCTCTCCAATTTTTTTCTCTCCTAAACTGATCGGAGTCACCTAGTGCAG | 10100 fluorescence intensity (a.u.)
GCTGTTTGTTGTTTCTTGCTGCCTGAATTCTCGGATGAATCGGAGTCACCTAGTGCAG | 10700 fluorescence intensity (a.u.)
ATCACCTTCTTCGGCCACCCCACCTGCCGCTGCTCCGACGCGGAGTCACCTAGTGCAG | 9240 fluorescence intensity (a.u.)
TTAGTATTAATGAGGACTTGTTGCTGTGGTTTTCTGACTACGGAGTCACCTAGTGCAG | 8900 fluorescence intensity (a.u.)
ACTCCAGTTTTTCCAAAGCTTCGTCACCTGCCAACTCCTGCGGAGTCACCTAGTGCAG | 11700 fluorescence intensity (a.u.)
GTATACTACTACTTCTATATTTTAATATATAACACCGTTGCGGAGTCACCTAGTGCAG | 8320 fluorescence intensity (a.u.)
CGCCACCCGCATCCGTGCTCGCCGCTCCGCCGCCGCGCTCCGGAGTCACCTAGTGCAG | 11900 fluorescence intensity (a.u.)
GGTTTATGCAACTCCACAACTCCAGTCCAAACCCAACTCCCGGAGTCACCTAGTGCAG | 8100 fluorescence intensity (a.u.)
CCCACATGTCAGTCTGCCGCTTTGTCCTACCAATCCAAGCCGGAGTCACCTAGTGCAG | 9750 fluorescence intensity (a.u.)
ATTTTTGTGGGTTTGTTTGAAAGATATGTGGGATAATTGACGGAGTCACCTAGTGCAG | 9670 fluorescence intensity (a.u.)
ACTAGCAATTTATTCACCACAATTTTATGTCAGTCACAACCGGAGTCACCTAGTGCAG | 10000 fluorescence intensity (a.u.)
TCCTCTCGCCATCTCACTCGACTCGCCCAAGAACTCGGAGCGGAGTCACCTAGTGCAG | 9150 fluorescence intensity (a.u.)
TCCATTATACCATGTCTATGGGCACCAATTTCAGTGCTGACGGAGTCACCTAGTGCAG | 8480 fluorescence intensity (a.u.)
ACTTATAAACGGATCCGCGCACACCCTATCCATATGAACACGGAGTCACCTAGTGCAG | 11300 fluorescence intensity (a.u.)
TGTTTCTCGATCGGTACATCGCCAACTTCCGCTCGAGTTTCGGAGTCACCTAGTGCAG | 9020 fluorescence intensity (a.u.)
ATACAAATTTGTTTGTTTGGTTTGGTTGCACGAATTAATTCGGAGTCACCTAGTGCAG | 9330 fluorescence intensity (a.u.)

Sequence | binding signal
ATAAGTAGCCAGACCGTGTCTAGTGCTCTCTCTCTTTCTTCGGAGTCACCTAGTGCAG | 8650 fluorescence intensity (a.u.)
GAGCTTCCTATCGCGCCGCCGCGTGCGTACGTGTTTGATCCGGAGTCACCTAGTGCAG | 11000 fluorescence intensity (a.u.)
CATTTCCCAGTCCAAGCCTGGCTTTCCACCCGTTATTAGTCGGAGTCACCTAGTGCAG | 8060 fluorescence intensity (a.u.)
GGCCAAGTTTCCTCATCACCCCAGTGGACCCCACGCGTCACGGAGTCACCTAGTGCAG | 11800 fluorescence intensity (a.u.)
GGATGTAGCTTGATTGCTCGCCGTACGTCGTCGACATGTTCGGAGTCACCTAGTGCAG | 8810 fluorescence intensity (a.u.)
GCATTCGCTCACTCACACTCACACTCACTCTCTCTCTCTCCGGAGTCACCTAGTGCAG | 10200 fluorescence intensity (a.u.)
AGAGGAAGTGGGATAAGATGGGGTGGGCATGTAAGAATCTCGGAGTCACCTAGTGCAG | 15400 fluorescence intensity (a.u.)
CCAGCTTCTTCCGGCGGCTGGTCATCAACTTCTGCTACGACGGAGTCACCTAGTGCAG | 8900 fluorescence intensity (a.u.)
CTTTTCTTTCCTCTCTTCTCACCGGTTTCATTTGTGCCAACGGAGTCACCTAGTGCAG | 10400 fluorescence intensity (a.u.)
CCAATCTTTTCTTTCCCTTTTTTATTTTTAATTTTTTTGCCGGAGTCACCTAGTGCAG | 8530 fluorescence intensity (a.u.)
TCGCCGCTTCCTCTCGCACGCGCGCCGCCATGCCCTCTTCCGGAGTCACCTAGTGCAG | 9260 fluorescence intensity (a.u.)
AAACTCTCAATTTTTTTTTCCAAACTACCAACTTTCTCTACGGAGTCACCTAGTGCAG | 9230 fluorescence intensity (a.u.)
ATCGCATCCACCAGCGCCCAAAAACCCTACACCTGCAAACCGGAGTCACCTAGTGCAG | 8980 fluorescence intensity (a.u.)
TTACTTGTCTCCGCCGCCGCCGCCGCCGACGCCGCCGTCTCGGAGTCACCTAGTGCAG | 8910 fluorescence intensity (a.u.)
CCTTCCCGTGCCGCTGCTCCCCACCGCCACTGGGAACAACCGGAGTCACCTAGTGCAG | 8160 fluorescence intensity (a.u.)
TTTGAGTTTATCTCCTACTCTGGTTGTGCCATTGTCATTACGGAGTCACCTAGTGCAG | 10900 fluorescence intensity (a.u.)
CCACGACTGACCTCTTGACCTCTGAGATTTATTGATTAGACGGAGTCACCTAGTGCAG | 8690 fluorescence intensity (a.u.)
TTTCCTCCGTCCCTGAGCTGTACTCGCGCCAATCAATCATCGGAGTCACCTAGTGCAG | 9570 fluorescence intensity (a.u.)
TGTCGTACTACGTAGATCCTCGTACCAGCGTACCCCAATACGGAGTCACCTAGTGCAG | 8220 fluorescence intensity (a.u.)
TTCTTCTTCAACTCCGGTTGCCGGCCCTCTTCTTCTTCAACGGAGTCACCTAGTGCAG | 9940 fluorescence intensity (a.u.)
TGGTGACTGGGTAGGTGGTGGTGGTGGTGCGCGGCGGCGGCGGAGTCACCTAGTGCAG | 8620 fluorescence intensity (a.u.)

Sequence | binding signal
TCGCTATCAACAAACAGTGCACGCTTCGGTTCTTGTCTGTCGGAGTCACCTAGTGCAG | 12500 fluorescence intensity (a.u.)
CACCCAGCTGCAACATGGATCACCAAACATATCGATCCTTCGGAGTCACCTAGTGCAG | 8220 fluorescence intensity (a.u.)
ACTATGTACACCACCTACACACCACAACAACCCGCACCACCGGAGTCACCTAGTGCAG | 8830 fluorescence intensity (a.u.)
CTTCCTCATCTCTCTCTCACTTCTCTCCTCTCTGTAGGGCCGGAGTCACCTAGTGCAG | 8660 fluorescence intensity (a.u.)
TGTTGATGAGCTAAAGGTTGCAAATTGGAATGGTTTGGGGCGGAGTCACCTAGTGCAG | 8390 fluorescence intensity (a.u.)
CTGCGTTAGTTGTTGCGTCCCGCCTTGTCCGTCCTTGTCACGGAGTCACCTAGTGCAG | 10200 fluorescence intensity (a.u.)
TATCCCTTGGCTGTCCCATCGTCCATTTCAAGTTCTGCATCGGAGTCACCTAGTGCAG | 11600 fluorescence intensity (a.u.)
GATCAGAGATGAGGGCGGGCGGGTTGACTGGGAGAGTAGACGGAGTCACCTAGTGCAG | 20500 fluorescence intensity (a.u.)
CCTCGTCCTCGTCTCGTCTCGTCTCCTCTCCGCCTCTTTCCGGAGTCACCTAGTGCAG | 10000 fluorescence intensity (a.u.)
CTAGAAAGAGGATTGCTCACTTCCACATACGTGCCGCTTTCGGAGTCACCTAGTGCAG | 8660 fluorescence intensity (a.u.)
AAGGTTGGTTGGTTGGTCGCCGTCGTTGGCCATGGCCATGCGGAGTCACCTAGTGCAG | 8710 fluorescence intensity (a.u.)
GCACTCGCACTACACCCACCCACCCATCGATCCATCCATCCGGAGTCACCTAGTGCAG | 9140 fluorescence intensity (a.u.)
ACCTGTAATTCAGTAGTACTTGTGTCCATTGATTTATGATCGGAGTCACCTAGTGCAG | 8900 fluorescence intensity (a.u.)
GGTGCTTTGACTTTGTCATCGCGCGCGCGCATATATACTACGGAGTCACCTAGTGCAG | 10500 fluorescence intensity (a.u.)
TTCCTAATTGCTCTGTTTTAGCTGCCACAGGGAATCAACTCGGAGTCACCTAGTGCAG | 8900 fluorescence intensity (a.u.)
AATTCTAGTCATTGATGATTATTTTTGACTGCTTCACTTTCGGAGTCACCTAGTGCAG | 10800 fluorescence intensity (a.u.)
CAACAAGCTCCGTCTCTGCCACACCCACACTGTGCCGCAACGGAGTCACCTAGTGCAG | 8480 fluorescence intensity (a.u.)
TGTGATTTTTTTATGGCATTTGACATTTTTTTTGGCCGCTCGGAGTCACCTAGTGCAG | 9810 fluorescence intensity (a.u.)
AATATTCGCTACCGTATTCGTTCCGTCTCGTATTCGCTCCCGGAGTCACCTAGTGCAG | 10900 fluorescence intensity (a.u.)
CGAGCTGGAGTAGAGTTTGTTGGTTTTTCTTGTCTCATCTCGGAGTCACCTAGTGCAG | 9620 fluorescence intensity (a.u.)
CCTCGCCTCTCTAATCACCCGCTTCGCTTCCCAATCTCTCCGGAGTCACCTAGTGCAG | 12700 fluorescence intensity (a.u.)

Sequence | binding signal
AAGGTTATGTTTTCTTGCTAGCTAGTCTCTCCTGTTCAAACGGAGTCACCTAGTGCAG | 10600 fluorescence intensity (a.u.)
GCGTCGGGGTCTAGGAAGGAGTTGTTGTAGGTGTCGAACTCGGAGTCACCTAGTGCAG | 8310 fluorescence intensity (a.u.)
CGTCTCCTCGTCCTCATCCACGGCGAGTCCGCGTCATCCACGGAGTCACCTAGTGCAG | 8400 fluorescence intensity (a.u.)
CTGTATCGAGTTTAATTTATCCTTCATTTTTACTAACTTTCGGAGTCACCTAGTGCAG | 8140 fluorescence intensity (a.u.)
TGGTTGTTTCTTGTTGTGGCCTAACTTATGTTTTATTCCACGGAGTCACCTAGTGCAG | 9970 fluorescence intensity (a.u.)
TTGATGCACTTTGTTTTCTAGGTTTTTTTTTTGGCAGCTACGGAGTCACCTAGTGCAG | 9690 fluorescence intensity (a.u.)
GTAACTACGCTGACTTATTGCTGGAGTATTCTTTTTTTTTCGGAGTCACCTAGTGCAG | 10000 fluorescence intensity (a.u.)
TTTTTGTTTTACTTTGTCAAAGTTTTACACTTGTATTCCTCGGAGTCACCTAGTGCAG | 8040 fluorescence intensity (a.u.)
TTGCATATTTTGTAGAGTGATCTATCACATGTTAGTATATCGGAGTCACCTAGTGCAG | 8100 fluorescence intensity (a.u.)
AGAGATTTCTTTCTTCTTCTTGATTTTTTTTGATTCGCTTCGGAGTCACCTAGTGCAG | 10400 fluorescence intensity (a.u.)
GCGTCACTTTTACTCTACATTTTCTCCCATTTATAAACAACGGAGTCACCTAGTGCAG | 11300 fluorescence intensity (a.u.)
GCCCGTAATCCATCTCTTGAACGGCCGTGTGTGTGTTCTTCGGAGTCACCTAGTGCAG | 12400 fluorescence intensity (a.u.)
TACATATATCGACGCAGACCCGCGACCCGTTAAGCCTATCCGGAGTCACCTAGTGCAG | 9270 fluorescence intensity (a.u.)
GCCTGTACCTTTTGGTTATGCACTCTCTCAACAAAGTGTACGGAGTCACCTAGTGCAG | 8490 fluorescence intensity (a.u.)
GGATTTTTGACGGGGTTTTGCAACGGACTTGACTTGTTTACGGAGTCACCTAGTGCAG | 8320 fluorescence intensity (a.u.)
CTTGTTTTTTTTTTCTTCTTTTTTCCTTGTCCCATGGCAACGGAGTCACCTAGTGCAG | 9830 fluorescence intensity (a.u.)
CAAATACAATGATATTATTCCACTTTGTTCTTTTATGATGCGGAGTCACCTAGTGCAG | 9120 fluorescence intensity (a.u.)
ACAATTTCGATTTAGCTTAAATTTCATCTTTTGTAATATACGGAGTCACCTAGTGCAG | 8590 fluorescence intensity (a.u.)
CCCTCTCTCCATCTGGTGCTCTCTATCTGAGGAATCCGAACGGAGTCACCTAGTGCAG | 8660 fluorescence intensity (a.u.)
ATACTGTCTGCGTCTCCTATTGTTGGCAACGTCGTAATTACGGAGTCACCTAGTGCAG | 12000 fluorescence intensity (a.u.)
GATGTTTTTGCGCTTAATTCAATTTGTACACAATTTTCACCGGAGTCACCTAGTGCAG | 8360 fluorescence intensity (a.u.)

Reference: paper PMC7819943, “Rice protein-binding microarrays: a tool to detect cis-acting elements near promoter regions in rice”
